Experimental data: patent US7563760 (GENETICS INSTITUTE, dated 2009)
Results are given in words; binding and its absence hold for the method and conditions named. Some results given as binding are weak or reduced against the parent protein; the word gives no strength.

Sequences of proteins named here, by UniProt entry; tags and fusion partners are left off. A change or cut given only in a name is not applied to a line headed by its entry. Residues count along the entry.
UniProt P16109, residues 42-771: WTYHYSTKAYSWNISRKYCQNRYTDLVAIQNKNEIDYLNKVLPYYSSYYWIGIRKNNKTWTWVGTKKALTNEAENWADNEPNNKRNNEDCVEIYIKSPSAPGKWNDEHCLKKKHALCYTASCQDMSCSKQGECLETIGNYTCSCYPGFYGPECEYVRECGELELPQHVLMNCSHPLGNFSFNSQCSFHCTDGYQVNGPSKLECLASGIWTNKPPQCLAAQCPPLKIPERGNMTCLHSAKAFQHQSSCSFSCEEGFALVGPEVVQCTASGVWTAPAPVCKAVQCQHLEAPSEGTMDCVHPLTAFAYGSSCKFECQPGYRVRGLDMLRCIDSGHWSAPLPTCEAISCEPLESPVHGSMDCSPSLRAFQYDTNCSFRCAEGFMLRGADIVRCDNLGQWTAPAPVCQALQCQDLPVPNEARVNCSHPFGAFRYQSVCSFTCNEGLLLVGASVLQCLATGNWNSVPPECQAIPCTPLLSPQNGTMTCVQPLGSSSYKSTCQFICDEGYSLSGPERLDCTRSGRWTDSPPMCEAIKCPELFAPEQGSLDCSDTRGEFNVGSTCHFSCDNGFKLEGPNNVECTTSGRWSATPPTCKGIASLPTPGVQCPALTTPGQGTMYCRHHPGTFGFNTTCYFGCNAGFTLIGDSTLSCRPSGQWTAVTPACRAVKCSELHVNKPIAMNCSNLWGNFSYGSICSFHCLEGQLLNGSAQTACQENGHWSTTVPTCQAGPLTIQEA

Target: LEC-γ1, chimeric form of P-selectin conjugated to the Fc portion of a human IgGγ1 (human) (UniProt P16109)
Assay: inhibition of Lec-γ1 binding to coated PSGL-1 (FIG. 30)

## QATEYEYLDYDFLPEC [peptide … (amino acids 42-56 of SEQ ID NO:2 with a C-terminal cysteine)]
  binding: binds
